No constants are given. Whether binding was seen depends on the method and setting. Some entries that bind do so weakly or less than the wild type.
Target: human DLL3 (human) (UniProt Q9NYJ7)
Experiment: hybridoma screening: ELISA on immobilized DLL3 or flow cytometry on HEK-293T cells overexpressing hDLL3

The chains behind the UniProt entries cited, without tags or fusion partners. Where a name states a change or a piece, a line headed by the entry shows the natural chain unless it says otherwise.
UniProt Q9NYJ7: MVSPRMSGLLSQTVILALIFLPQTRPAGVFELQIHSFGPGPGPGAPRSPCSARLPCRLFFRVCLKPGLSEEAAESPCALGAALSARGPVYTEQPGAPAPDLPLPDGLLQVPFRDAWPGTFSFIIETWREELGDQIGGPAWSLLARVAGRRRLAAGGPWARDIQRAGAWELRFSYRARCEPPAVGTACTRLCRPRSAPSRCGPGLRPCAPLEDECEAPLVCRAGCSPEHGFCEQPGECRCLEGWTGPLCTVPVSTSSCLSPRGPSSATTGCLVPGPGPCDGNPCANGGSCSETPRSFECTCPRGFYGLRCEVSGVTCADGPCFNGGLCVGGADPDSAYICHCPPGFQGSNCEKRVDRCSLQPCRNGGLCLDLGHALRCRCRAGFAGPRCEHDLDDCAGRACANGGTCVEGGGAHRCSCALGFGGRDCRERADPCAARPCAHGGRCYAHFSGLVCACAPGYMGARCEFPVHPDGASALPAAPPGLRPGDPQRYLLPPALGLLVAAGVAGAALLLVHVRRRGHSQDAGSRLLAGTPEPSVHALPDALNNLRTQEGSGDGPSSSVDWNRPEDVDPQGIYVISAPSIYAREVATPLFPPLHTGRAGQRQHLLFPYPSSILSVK

Binder	binding
SC16.133 (antibody, V domains shown) VH: QVQLKESGPGLVAPSQSLSITCTVSGFSLTNYAVHWVRQSPGKGLEWLGVIWSDGSTDYNAAFISRLSISKDNSKSQVFFKMNSLQADDTAMYYCARKKGGWFPWFAYWGQGTLVTVSA VL: SIVMTQTPKFLLVSAGDRVTITCKASQSVSNDVAWYQQKPGQSPKLLIYCASNRYTGVPDRFTGSGYGTDFTFTISTVQAEDLAVYFCQQDYSSPLTFGAGTKLELK	binds
SC16.135 (antibody, V domains shown) VH: QVQLQQSGAELVRPGTSVKVSCKASGYAFTNYLIEWVKQRPGQGLEWIGVINPGSGGTNSNEKFKAKATLTADKSSSTAYMQLSSLTSADSAVYFCARSDYDYAFYAMDYWGQGTSVTVSS VL: DIKMTQSPSSMYASLGERVTITCKASQDINRYLSWFQQKPGKSPKTLIYRANRLVDGVPSRFSGSGSGQDYSLTISSLEYEDMGIYYCLQYDEFPFTFGSGTKLEIK	binds
SC16.136 (antibody, V domains shown) VH: EVQLQQSGPELVKPGASVKMSCKASGYTFTSYVMHWVKQKPGQGLEWIGYINPYNDGTKYNEKFKGKATLTSDKSSSTAYMELSSLTSEDSAVYYCARDRSGYEDYYGMDYWGQGTSVTVSS VL: DIQMTQSPASLSASVGETVTITCRASGNIHNYLAWYQQKQGKSPHLLVYNAKTLADGVPSRFSGSGSGTQYSLKINSLQPEDFGSYYCQHFWSTPWTFGGGTKLEIK	binds
SC16.137 (antibody, V domains shown) VH: EVQLVESGGDLVKPGGSLKLSCAASGFTFSSYGMSWVRQTPDKRLEWVATISSGGSYTYYPDSVKGRFTISRDNAKNTLYLQMSSLKSEDTAMYYCARRRADAMDYWGQGTSVTVSS VL: QIVLTQSPAIMSASLGEEITLTCSASSSVSYMHWYQQKSGTSPKLLIYSTSNLASGVPSRFSGSGSGTFYSLTISSVEAEDAADYYCHQWSSYHTFGGGTKLEIKR	binds
SC16.138 (antibody, V domains shown) VH: QVQLKESGPGLVAPSQSLSITCTVSGFSLTDYGVSWIRQPPGKGLEWLGVVWGGGSTYYNSALKSRLSISKDNSKSQVFLKMNSLQTDDTAMYYCAKQRGQYGAYWGQGTLVTVSA VL: DIQMTQSPASQSASLGESVTITCLASQTIGTWLAWYQQKPGKSPQLLIYSATSLADGVPSRFSGSGSGTKFSFKISSLQAEDFVSYYCQQLYSTPWTFGGGTKLEIK	binds

Now from value to binder:

binding	Binder
binds	SC16.141 (antibody, V domains shown) VH: QVQLKQSGPGLVAPSQSLFITCTVSGFSLTSYEINWVRQPPGKGLEWLGVIWTGGSTNYNSALISRLSISKDNSKSLVFLKMNSLQTDDTAIYYCVRGVYAMDYWGQGTSVTVSS VL: DIKMTQSPSSMYASLGERVTITCKASQDINSYLSWFQQKPGKSPKTLIYRANRLVDGVPSRFSGSGSGQDYSLTISSLEYEDMGIYYCLQYDEFPFTFGSGTKLEIK
binds	SC16.140 (antibody, V domains shown) VH: QVQLQQSGPELVRPGASVKMSCKASGYTFTSYWMHWVKQRPGQGLEWIGMIDPSNSETRLNQKFKDKATLNVDKSSNTAYMQLSSLTSEDSAVYYCAVMDYYFDYWGQGTTLTVSS VL: DIVLTQSLASLAVSLGQRATISCRASKSVSTSGYSYMHWYQQKPGQPPKLLIYLASNLESGVPARFSGSGSGTDFTLNIHPVEDEDAATYYCQHSRELPFTFGGGTKLEIK
binds	SC16.139 (antibody, V domains shown) VH: EVQLQQSGPELVKPGASVKMSCKASGYTFTNYVMHWVKQKPGQGLEWIGYINPYNDGTKYNEKFKGKATLTSDKSSTTAYMALSSLTSEDSAVYYCAVAYYSNWGFAYWGQGTLVTVSA VL: DIVMTQSHKFMSTSVGDRVSITCKASQDVNTAVGWYQQKPGQSPKLLIYSASYRYTGVPDRFTGSGSGTDFTFTISSVQAEDLAVYYCQQHYSSPYTFGGGTKLEIK

Reference: patent publication US20180243435A1 (AbbVie / Abbott, published 2018)
